Experimental data reported in patent publication CN116981688A.
These are yes or no findings as the source states them, for the method shown. Some entries that bind do so weakly or less than the wild type.

Target: T1, 重组PRDX4 (UniProt Q13162)
T1 sequence (looked up): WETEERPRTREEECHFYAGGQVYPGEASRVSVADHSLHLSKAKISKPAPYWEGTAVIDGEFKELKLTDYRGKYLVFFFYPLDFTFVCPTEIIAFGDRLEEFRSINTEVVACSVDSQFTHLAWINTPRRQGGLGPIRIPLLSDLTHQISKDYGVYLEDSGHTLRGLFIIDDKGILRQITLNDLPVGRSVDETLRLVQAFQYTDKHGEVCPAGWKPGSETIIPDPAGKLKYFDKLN
Assay: immunoprecipitation of 10 ng recombinant PRDX4 with 11F2 beads, western blot

- binding: binds
B1: 抗体11F2 (antibody, V domains shown)
VH: QVQLQQSGAELVKPGTSVKLSCKASGYTFSTHHMHWIKETTGQGLEWIGIINPGNGGTKYNVKFKGKATLTVDSSSSTAFMQLGSLTPEDSAVYYCARGNPASFDYWGQGVMVTVSS
VL: DIQMTQSPSFLSASVGDRVTINCKASQNIYKYLNWYQQKLGEAPKRLIYNTNNLETDIPSRFSGSGSGTDYTFTISSLQPEDFATYFCLQHSNFPFTFGSGTKLEIKR
